# Laboratory results taken from US20110138496.
# Chains of the proteins cited; added tags and fusions are not shown. Chains listed by the source or under a name are the forms on record and can include a tag or linker.
# HvIDEF2 (barley library one-hybrid clone) (Hordeum vulgare), one chain, as listed by the source: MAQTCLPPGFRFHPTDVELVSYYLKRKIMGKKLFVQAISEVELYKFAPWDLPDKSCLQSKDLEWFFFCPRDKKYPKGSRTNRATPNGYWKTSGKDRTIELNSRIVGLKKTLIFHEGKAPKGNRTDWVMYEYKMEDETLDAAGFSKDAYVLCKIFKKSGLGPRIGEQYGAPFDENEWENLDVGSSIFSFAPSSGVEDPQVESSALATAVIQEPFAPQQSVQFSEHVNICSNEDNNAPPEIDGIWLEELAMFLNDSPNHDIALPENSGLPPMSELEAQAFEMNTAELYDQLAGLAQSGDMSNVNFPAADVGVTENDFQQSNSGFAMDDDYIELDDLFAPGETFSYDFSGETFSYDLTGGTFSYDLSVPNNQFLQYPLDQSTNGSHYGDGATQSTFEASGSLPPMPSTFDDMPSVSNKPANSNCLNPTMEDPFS
# AK101356 GAL4 AD fusion (Oryza sativa), one chain, as listed by the source: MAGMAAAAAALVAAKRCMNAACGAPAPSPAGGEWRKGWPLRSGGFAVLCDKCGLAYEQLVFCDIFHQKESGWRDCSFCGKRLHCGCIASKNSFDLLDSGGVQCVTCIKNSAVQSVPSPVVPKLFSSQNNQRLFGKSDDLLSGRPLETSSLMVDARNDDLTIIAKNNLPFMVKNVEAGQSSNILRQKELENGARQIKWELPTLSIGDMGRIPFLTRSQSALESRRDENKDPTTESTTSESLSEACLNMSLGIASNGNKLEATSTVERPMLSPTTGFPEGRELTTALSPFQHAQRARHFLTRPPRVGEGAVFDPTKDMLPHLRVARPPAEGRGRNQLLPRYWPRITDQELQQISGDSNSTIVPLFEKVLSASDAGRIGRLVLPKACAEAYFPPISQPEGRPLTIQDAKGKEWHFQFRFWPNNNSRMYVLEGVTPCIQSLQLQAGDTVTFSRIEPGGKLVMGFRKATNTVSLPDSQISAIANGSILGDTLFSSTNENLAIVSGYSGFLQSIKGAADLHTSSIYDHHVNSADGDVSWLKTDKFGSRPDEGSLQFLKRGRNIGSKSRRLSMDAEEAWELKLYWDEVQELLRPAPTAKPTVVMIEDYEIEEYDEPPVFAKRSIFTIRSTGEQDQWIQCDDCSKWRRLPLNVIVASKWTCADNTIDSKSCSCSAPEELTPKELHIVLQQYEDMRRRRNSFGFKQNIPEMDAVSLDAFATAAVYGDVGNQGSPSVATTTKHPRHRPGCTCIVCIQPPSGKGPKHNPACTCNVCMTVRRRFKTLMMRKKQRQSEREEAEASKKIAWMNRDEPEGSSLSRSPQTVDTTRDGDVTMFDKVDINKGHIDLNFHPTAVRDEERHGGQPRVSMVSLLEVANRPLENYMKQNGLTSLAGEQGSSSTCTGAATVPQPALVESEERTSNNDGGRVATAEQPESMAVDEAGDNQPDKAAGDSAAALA
# AK101356 B3-domain fragment, MBP fusion (Oryza sativa), one chain, as listed by the source: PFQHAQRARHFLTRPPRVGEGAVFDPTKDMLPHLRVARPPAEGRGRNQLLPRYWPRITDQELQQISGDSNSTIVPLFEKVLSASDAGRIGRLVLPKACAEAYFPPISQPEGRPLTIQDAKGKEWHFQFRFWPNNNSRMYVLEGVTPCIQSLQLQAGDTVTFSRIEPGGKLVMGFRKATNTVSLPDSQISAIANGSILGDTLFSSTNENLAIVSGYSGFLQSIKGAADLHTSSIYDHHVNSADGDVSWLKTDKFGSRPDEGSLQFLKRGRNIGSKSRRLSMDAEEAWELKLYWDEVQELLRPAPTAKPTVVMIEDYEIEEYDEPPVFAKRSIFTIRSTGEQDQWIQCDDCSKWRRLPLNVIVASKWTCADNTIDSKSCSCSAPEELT
# For some assays here: Negatives hold for the conditions tested. For some assays here: Where a protein sequence is shown, tags need not be part of it. For some assays here: Results from cells or extracts need not show a direct contact. For some assays here: Construct, isoform or probe ends are uncertain for at least one entry.
# Key:
# [1] = biological target: T1, OsVP1 GAL4 AD fusion (Oryza sativa) (UniProt P37398); assay: one hybrid; conditions: protein in cells, protein details: GAL4 AD (pGAD424)
# T1 sequence (looked up, limits assumed): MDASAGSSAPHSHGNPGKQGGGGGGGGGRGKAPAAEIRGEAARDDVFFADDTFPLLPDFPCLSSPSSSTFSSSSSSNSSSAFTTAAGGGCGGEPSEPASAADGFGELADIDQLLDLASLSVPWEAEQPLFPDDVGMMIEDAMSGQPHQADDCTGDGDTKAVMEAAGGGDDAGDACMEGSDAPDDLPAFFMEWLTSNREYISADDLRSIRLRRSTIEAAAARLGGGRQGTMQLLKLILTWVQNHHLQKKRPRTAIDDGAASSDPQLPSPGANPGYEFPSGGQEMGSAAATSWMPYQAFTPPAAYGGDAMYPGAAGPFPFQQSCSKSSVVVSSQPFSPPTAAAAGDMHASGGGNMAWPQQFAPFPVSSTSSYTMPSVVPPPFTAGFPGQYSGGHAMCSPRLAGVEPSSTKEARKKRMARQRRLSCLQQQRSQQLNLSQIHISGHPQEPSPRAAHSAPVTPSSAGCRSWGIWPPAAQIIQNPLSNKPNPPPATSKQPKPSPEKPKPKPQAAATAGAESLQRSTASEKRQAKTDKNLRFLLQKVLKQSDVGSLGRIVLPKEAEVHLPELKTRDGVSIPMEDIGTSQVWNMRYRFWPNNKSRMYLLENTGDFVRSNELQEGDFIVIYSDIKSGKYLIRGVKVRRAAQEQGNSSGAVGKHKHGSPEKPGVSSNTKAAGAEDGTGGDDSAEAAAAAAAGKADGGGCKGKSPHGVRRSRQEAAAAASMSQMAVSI
# [2] = test system: AK101356 GAL4 AD fusion (Oryza sativa); assay: one hybrid; conditions: protein in cells, protein details: GAL4 AD (pGAD424)
# [3] = biological target: T2, IDEF1 (AK107456) full length, GAL4 AD fusion (Oryza sativa) (UniProt Q6Z1Z3); assay: one hybrid; conditions: protein in cells, protein details: GAL4 AD (pGAD424)
# T2 sequence: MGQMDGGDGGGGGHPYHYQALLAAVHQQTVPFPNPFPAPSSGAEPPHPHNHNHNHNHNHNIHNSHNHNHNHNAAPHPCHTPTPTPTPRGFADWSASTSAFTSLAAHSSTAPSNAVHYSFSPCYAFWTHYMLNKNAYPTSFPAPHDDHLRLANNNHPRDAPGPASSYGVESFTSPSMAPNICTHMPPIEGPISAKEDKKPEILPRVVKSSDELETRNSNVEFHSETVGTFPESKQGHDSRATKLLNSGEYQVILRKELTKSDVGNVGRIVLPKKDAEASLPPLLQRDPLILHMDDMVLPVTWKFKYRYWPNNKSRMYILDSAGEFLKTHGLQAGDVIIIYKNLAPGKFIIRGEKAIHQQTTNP
# [4] = test system: HvIDEF2 (barley library one-hybrid clone) (Hordeum vulgare); assay: one hybrid; conditions: positive clone from iron-deficient barley root cDNA library screen; protein in cells
# [5] = test system: AK101356 B3-domain fragment, MBP fusion (Oryza sativa); assay: EMSA; conditions: no specific binding; purified recombinant protein; protein details: MBP (pMAL-c2); label: labeled (EMSA probe)
# [6] = similar results with IDE2-IDE1x2 reporter, label: labeled (EMSA probe)
sequence,measurement,setting,value
GCAGTCGAATTCGATATCAAGCATGCTTCTTGCTGCCCATCAAGCATGCTTCTTGCTGCCCATCAAGCATGCTTCTTGCTGCCCGTCGACTCTAGAGCAGTC (double strand) [IDE1x3 bait],activity on this sequence,[1]; no LacZ induction,not active
same,activity on this sequence,[2]; no LacZ induction,not active
same,activity on this sequence,[3]; LacZ reporter in yeast YM4271,active
AGCTTGAATTCTTGAACGGCAAGTTTCACGCTGTCACTTTGAACGGCAAGTTTCACGCTGTCACTTTGAACGGCAAGTTTCACGCTGTCACTCTAGAGTCGACCTCGAGGCAT (double strand) [IDE2x3 bait],binding result,[4],binds
AAGCTTGAATTCGATATCTTGAACGGCAAGTTTCACGCTGTCACTATCAAGCATGCTTCTTGCTTGAACGGCAAGTTTCACGCTGTCACTATCAAGCATGCTTCTTGCACGCGTCTCGAGTCGCGAATCG (double strand) [IDE2-IDE1x2 (tandemly duplicated IDE1 probe)],activity on this sequence,[1]; [6],not active
same,activity on this sequence,[2]; [6],not active
same,activity on this sequence,[3]; [6],active
same,binding result,[5],no binding
